The other results are listed elsewhere or left out. The main result of the screen is listed elsewhere. These columns were measured beside it and carry no call. Most of these compounds were active or inconclusive in the main read-out, so they are no random draw. The note in brackets gives the kind of curve behind each potency; many fits are weak.
Assay: qHTS Assay to Find Inhibitors of Chronic Active B-Cell Receptor Signaling
Conditions: ABC-DLBCL IkBa-CBG/CBR reporter, luminescence ratio (green luciferase fused to IkBa over red control in TMD8 lymphoma cells), 4 h
How it was run: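 Cell line TMD8 (human ABC DLBCL), stably expressing tet-inducible CBG68-IkBa fusion and CBR; IMDM/0.5% FBS; cpd up to 46 uM; dox induction, 4 h, 37C/5% CO2; dual luminescence; green/red ratio; MG132 control.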

[1] = measured here: CBR red luminescence, cell number
[2] = measured here: IkBa-CBG green luminescence

CCCN(CCC)C1CC(=O)N(Cc2ccccc2)C1=O (configuration not stated)
AC50 [1]: 17.8 µM [falling, single point]

CCOC(=O)C1(CCCc2ccccc2)CCN(C(=O)CCc2cnccn2)CC1
AC50 [1]: 3.55 µM [rising, full curve, poor fit]

CCN(CC)CCCN(C(=O)c1ccc(OC)cc1)c1nc(-c2ccc(OC)cc2)cs1
AC50 [1]: 28.2 µM [falling, single point] | AC50 [2]: 2.82 µM [rising, full curve, poor fit]

COc1cccc(OC)c1-c1nn2c(-c3ccccc3Cl)nnc2s1
AC50 [1]: 0.316 µM [rising, full curve, poor fit]

CCCCn1c(SCC(=O)Nc2cccc(OC)c2)nc2ccsc2c1=O
AC50 [1]: 12.6 µM [falling, partial curve]

Cc1cc(C)c(C)c(S(=O)(=O)NCC(=O)Nc2ccc(F)cc2)c1C
AC50 [1]: 6.31 µM [falling, full curve]

N=C(N)SCc1nc2ccccn2c1Br
AC50 [1]: 29.1 µM [falling, single point]

O=C(Cc1ccccc1)NCCN1CCCC1
AC50 [1]: 0.0891 µM [rising, full curve, poor fit]

CCNC(=S)N1CCN(CCN=CC2=C(O)CC(c3ccco3)CC2=O)CC1 (configuration not stated)
AC50 [1]: 18.4 µM [rising, partial curve, poor fit]

CCOc1ccc(C2=Nc3ccc(Br)cc3C(c3ccc(N4CCOCC4)cc3)=NN2)cc1
AC50 [1]: 4.11 µM [rising, full curve, poor fit]

COc1ccc(-n2cc(-c3ccccc3)c3c(NCc4cccc(Cl)c4)ncnc32)cc1
AC50 [1]: 35.5 µM [rising, single point]

Cc1c(C(=O)OC(C)C)sc(N)c1C(=O)OC(C)C
AC50 [1]: 5.17 µM [rising, partial curve, poor fit]

COc1ccc(N(CC(=O)NC2CCCC2)C(=O)c2ccc(C)s2)c(OC)c1
AC50 [1]: 17.8 µM [rising, single point]

COc1cc(/C=N/NC(N)=S)ccc1OC(=O)c1ccc(C)cc1
AC50 [1]: 2.91 µM [rising, single point]

CN(C)c1ccc(C(CNC(=O)c2cccs2)N(C)C)cc1 (configuration not stated)
AC50 [1]: 22.4 µM [falling, partial curve, poor fit]

O=C(NCC(=O)N1CCN(Cc2ccccc2)CC1)c1ccc(Br)o1
AC50 [1]: 14.1 µM [rising, partial curve, poor fit]

COc1ccc(C(C)=O)cc1COc1ccc([N+](=O)[O-])c(C)c1
AC50 [1]: 0.891 µM [rising, full curve, poor fit]

O=S(=O)(NCc1ccccc1)c1ccccc1NCc1ccc(Cl)cc1
AC50 [1]: 29.1 µM [rising, single point]

CN(CCc1ccccn1)C(=S)Nc1ccc(Cl)cc1Cl
AC50 [1]: 35.5 µM [rising, single point]

Cc1cccc(OC(C)C(=O)N(Cc2cccs2)C2CCS(=O)(=O)C2)c1C (configuration not stated)
AC50 [1]: 32.6 µM [falling, partial curve, poor fit]

O=S(=O)(c1cnccc1N1CCN(/N=C/c2ccc(Cl)cc2)CC1)N1CCCCC1
AC50 [1]: 0.058 µM [rising, full curve, poor fit]

O=C(COc1ccc(/C=N/NC(=O)c2ccc(O)cc2)cc1)Nc1cccc([N+](=O)[O-])c1
AC50 [1]: 1.41 µM [falling, full curve]

COc1ccccc1NC(=O)Nc1cccc(NC(C)=O)c1
AC50 [1]: 5.62 µM [falling, partial curve, poor fit]

Cc1cnc(NC(=O)CCc2ccccc2)s1
AC50 [1]: 11.2 µM [falling, single point]

Cc1cc(C)n(C(=O)c2ccc(NC(=O)C3CC3)cc2)n1
AC50 [1]: 23.1 µM [rising, partial curve, poor fit]

COCC1CCCN(C(=O)c2cc(COc3ccc4ncccc4c3)on2)C1 (configuration not stated)
AC50 [1]: 11.2 µM [falling, partial curve]

CCOc1cc(CN2CCN(CCOCCO)CC2)ccc1OC
AC50 [1]: 2.59 µM [falling, partial curve, poor fit]

COc1ccc(Nc2nc(N)nc(CSC(=S)N3CCCCC3)n2)cc1
AC50 [1]: 25.1 µM [falling, single point]

CCOc1cc(C(=O)Nc2ccc(S(=O)(=O)NC3=NCCCCC3)cc2)cc(OCC)c1OCC
AC50 [1]: 14.1 µM [falling, single point]

COc1ccccc1Nc1ncnc2c1nc1n2CCCC1
AC50 [1]: 6.31 µM [rising, partial curve]

Cc1cc(-n2cnnn2)ccc1C(C)C
AC50 [1]: 3.98 µM [rising, full curve]

CCN(CC)CCN(C)C(=O)c1ccc(OC2CCN(C(=O)C3CC3)CC2)cc1
AC50 [1]: 14.1 µM [rising, single point]

CCC(C)n1c(SCC(=O)Nc2ccccc2C(F)(F)F)nc2ccsc2c1=O (configuration not stated)
AC50 [1]: 35.5 µM [falling, single point]

CCc1nc(Nc2ccc3c(c2)OCO3)c2oc3ccccc3c2n1
AC50 [1]: 3.55 µM [falling, partial curve]

COc1ccc(NS(=O)(=O)c2ccc(NC(=S)NC(=O)c3cccc(F)c3)cc2)nn1
AC50 [1]: 20.6 µM [falling, partial curve, poor fit]

O=C(CNC(=O)c1ccco1)OCc1ccccc1F
AC50 [1]: 5.17 µM [rising, full curve, poor fit]

CCCCn1c(SCc2cc(=O)n3ccsc3n2)nc2cc(C(=O)OC)ccc2c1=O
AC50 [1]: 35.5 µM [falling, partial curve, poor fit]

N#Cc1nc(COc2ccc(Br)cc2)oc1NCCCn1ccnc1
AC50 [1]: 25.9 µM [falling, single point]

O=C(CSc1ccc(Cl)cc1)Nc1cccc(NC(=O)c2ccco2)c1
AC50 [1]: 1 µM [falling, full curve]

O=C(NCCc1ccccc1)C1COc2ccccc2O1 (configuration not stated)
AC50 [1]: 6.31 µM [rising, single point]

COC(=O)C1=C(N)Oc2cc(C)n(CCCn3ccnc3)c(=O)c2C1c1ccc(Cl)cc1 (configuration not stated)
AC50 [1]: 0.794 µM [falling, full curve, poor fit]

O=C(c1ccc(Cl)c(S(=O)(=O)NCc2cccnc2)c1)N1CCCC1
AC50 [1]: 2.91 µM [rising, full curve, poor fit]

CCCCNC(=O)Nc1nnc(C(C)(C)C)s1
AC50 [1]: 1.12 µM [rising, partial curve, poor fit]

CSc1ccccc1C(=O)C1CCCN(C(=O)CCc2cccnc2)C1 (configuration not stated)
AC50 [1]: 17.8 µM [falling, single point]

Cc1cc(C)n2nc(S(=O)(=O)N(C)Cc3ccccc3)nc2n1
AC50 [1]: 29.1 µM [rising, single point]

CCCCCn1c(=N)n(CC(O)COc2ccccc2OC)c2ccccc21 (configuration not stated)
AC50 [1]: 16.4 µM [falling, partial curve, poor fit]

Cc1ccc2[nH]c(=O)c(-c3noc(CC(C)C)n3)cc2c1
AC50 [1]: 0.708 µM [rising, full curve, poor fit]

O=C(Nc1ccc(-c2nc3cccnc3s2)cc1)c1ccc(Br)o1
AC50 [1]: 0.58 µM [rising, full curve]

CC(=O)Oc1ccc(C(=O)Nc2cccc(NC(=O)c3ccco3)c2)cc1
AC50 [1]: 7.08 µM [falling, partial curve]

COc1cc(/C=C2\CCC(C3CCCC3)C2=O)cc(OC)c1OC (configuration not stated)
AC50 [1]: 6.31 µM [rising, partial curve, poor fit]

CCOC(=O)C1CCN(C(=O)COc2ccc(Cl)cc2)CC1
AC50 [1]: 2.51 µM [falling, full curve]

CCC(=O)NC(=S)Nc1ccc(NC(=O)c2ccc(Br)o2)cc1
AC50 [1]: 17.8 µM [falling, partial curve, poor fit]

CCc1c(C)[nH]n(CCC#N)c1=O
AC50 [1]: 15.8 µM [falling, single point]

CCN(CC)S(=O)(=O)c1cccc(NC(=O)CCSc2ccc(Cl)cc2)c1
AC50 [1]: 23.1 µM [falling, single point]

CCNc1nc(C#N)nc2c1ncn2-c1cc(F)cc(F)c1
AC50 [1]: 1.64 µM [rising, full curve, poor fit]

CCN1C(=O)c2cccc3c(S(=O)(=O)N(C(=O)c4cccnc4)c4ccc(OC)cc4)ccc1c23
AC50 [1]: 0.411 µM [rising, full curve, poor fit]

CC(C)(C)C(=O)Nc1nc2c(s1)COc1ccccc1-2
AC50 [1]: 1.16 µM [falling, partial curve, poor fit]

Cc1ccccc1OCC(=O)N(Cc1cccs1)C1CCS(=O)(=O)C1 (configuration not stated)
AC50 [1]: 7.94 µM [falling, partial curve]

CCOc1ccc(-c2nn3c(-c4ccccc4)nnc3s2)cc1
AC50 [1]: 0.00411 µM [rising, full curve, poor fit]

COc1cc(/C=C/c2ccc3cccc(O)c3n2)ccc1O
AC50 [1]: 7.08 µM [rising, partial curve, poor fit] | AC50 [2]: 22.4 µM [falling, single point]

O=C(Cc1ccc(Cl)cc1Cl)Nc1ccc(OC(F)F)c(Cl)c1
AC50 [1]: 9.2 µM [rising, partial curve]

CCOC(=O)c1nn(-c2cccc(Cl)c2)c(C)c1C(C)=O
AC50 [1]: 18.4 µM [rising, single point]

O=C(Nc1cc2c(cc1Cl)OCCO2)c1ccco1
AC50 [1]: 14.6 µM [rising, single point]

CCN(CC)S(=O)(=O)c1ccc(N2CCOCC2)c(NC(=O)C23CC4CC(CC(Cl)(C4)C2)C3)c1
AC50 [1]: 0.58 µM [rising, full curve, poor fit]

COc1ccc(C(=O)O)cc1S(=O)(=O)N(CCc1ccccc1)Cc1ccccc1
AC50 [1]: 0.282 µM [falling, partial curve, poor fit]
